Hit rate of the full screen: of about 53,000 sequences, about 3,700 (7%) were called active.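 How the source made its calls: active means gene knockdowns whose robust z-score for IL-1 alpha signal is at least 2 or at most -2, so actives lie on both sides; inactive means the rest.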 The list shows a part of the results.

The assay is described as follows: Components of the Cytosolic LPS Sensing Pathway: Gene Identification via Genome-wide siRNA Screen.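 Further: robust z of the log signal after scaling to non-targeting control siRNA wells of the plate.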 The conditions noted are these: RAW264.7 macrophages, IL-1a HTRF, actives lie on both sides, screened at 100 nM (by protocol), cells primed 5 h with Pam3CSK4 first. In a few lines:
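Read-out: IL-1a HTRF on supernatant, divided by plate negative-control median ×100, log-transformed and converted to robust z-score. Cells were RAW264.7 given 100 nM siRNA, Pam3CSK4-primed 5 hours, then LipidA-transfected 24 hour.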
A general note: TR-FRET usually uses a lanthanide donor and a delayed reading to cut background.
In the case of GCGAUACAACUCUUAUGACTT against Dennd5b, the z-score was inactive: -0.521.

For the sequence GGUAGAACAACAGAACAAUTT against Myo5b, the z-score is active: 2.9. The value for CCUAAAGAGGUGGUUGAACTT against Zfp688 was inactive: -1. The value for GGCAUGACUUCAUCGAGACTT against Tmem189 was inactive: 0.124; that for CCCUGUUGCUGACAUUUAUTT against Wasf3 was inactive: 0.167. On to GGUCUAUCGCUUGCUUUUUTT against Abca2, for which the z-score is inactive: 1.67. The value for GGUUGACACUCUGAGGGAATT against Pld2 was inactive: -0.175; that for GGAACGUAAACUAAGCCCGTT against Foxb1 was inactive: 0.458; that for GCAGUUAUUCUGAGAGUGATT against Olfr1385 was inactive: 0.08. Turning to GGGUUAGAGUAAGGUAUUATT against Tsn, the z-score was inactive: -0.879. CGGCUGCAUUUCAACAAGGTT against Snrpc: the z-score was inactive: -1.92. On to CGGAUUCGUCUGUUUUCUGTT against Ddi2, for which the z-score was inactive: 1.97.

With GGCUUUUGAAGUAAAUACATT against Pcdhb14, the z-score was active: 2.65. The value for CCCACCUAGCAUACGACUATT against Kazald1 was inactive: 0.299.

As to AUGGAGUCCUACAUUCUAGTT against Ccdc92b, the z-score was inactive: -0.998.

For CCCUAACUGUAUGGACCAUTT against Coa3, the z-score is inactive: 1.15.

On to CCGCUAGAUUUCUCUUACCTT against Abhd14b, for which the z-score is inactive: 0.325.

GAGGAAGACACUUUUCCUGTT against Atp23: the z-score is inactive: 0.765.

With GGAUGUUGCUCCAAGUGGATT against Nmur1, the z-score is inactive: 0.258. For the sequence GGUGAAAUCCAUUAAAGAATT against Fth1, the z-score was active: -2.06. Take GCAACUUUAAUGACAGCGUTT against Moxd1: the z-score was inactive: -0.211. GGUGUUAUGCCUAUGUAUGTT against Mnx1: the z-score is inactive: -0.498. As for GGCAUCUUUGGAGACUGGUTT against Sycn, the z-score is inactive: 0.598. For the sequence GGUGACAUUUGAAAAUGUCTT against Slc25a12, the z-score is inactive: 0.411. The value for CCGAGUGGUGAGUCUUCUUTT against Olfr629 was inactive: -1.55. The value for GCUGGGACCUCAGAAAGUUTT against Sun3 was inactive: 0.253. Consider GGCCAAAAAUGAAAGAAAUTT against Myo15, for which the z-score was inactive: -0.251. Turning to CCUCUCCUCUAUUCAACACTT against Olfr472, the z-score is inactive: 0.934. For “GCAGAGCGGUAAUCUAUCUTT against 5031410I06Rik”, the z-score is inactive: -1.31.

GGGACUUGUCCAAUAAAGUTT against Aimp2: the z-score was inactive: -0.375. Turning to GGUACACUUUCAGAAAUGUTT against Exo5, the z-score was inactive: -0.84.

GGAACUGCCAGUUGACAUUTT against Olfr689: the z-score was inactive: 1.21. CCACCUUUCGUUGUUACAATT against Stk36: the z-score was inactive: 0.011. GGCAACAUCACUGAGUAUCTT against Glg1: the z-score is inactive: 0.57.

GGACCUGUUCAGCAGUUUGTT against Nckap1l: the z-score was inactive: 0.0285.

On to GCAGAGGUACGUGUUUGACTT against Gdf5, for which the z-score is inactive: 0.933. Regarding GCCUGUGGUGAUUCUCUUGTT against Tmem53, the z-score was inactive: -0.093. Turning to GGCACGUUCUCGUAUAUCATT against Slc52a2, the z-score is inactive: -0.122. In the case of GCCUCAGAAAAACAUCUAUTT against Msto1, the z-score is inactive: -1.51. Take GGAGAGAAAGAAGUUGUUGTT against Lcn5: the z-score was inactive: -0.526. On to GGAUAACCUAAUGUAGAUATT against Nphs2, for which the z-score was inactive: -0.0675. As to CGAGGGCCUGAAAAACCUGTT against Hbb-b2, the z-score was inactive: 0.492.

Turning to CCAUCCCAUUAUUAUGUCCTT against Ago1, the z-score is inactive: -0.0226. GCAAAUUAAGCACUGUAAGTT against Dennd1b: the z-score is inactive: 0.379. Turning to GGACCACUCUGAUGAAGAGTT against Pou3f4, the z-score was inactive: -0.887.

As to CAUCUCUCCACCAAUUCACTT against Adgrl3, the z-score is inactive: -1.3. Regarding GGAUGAGGACAAGUGCUCUTT against Agpat4, the z-score was active: -3.47. As to GCACAAAAUUCACUGUUAGTT against Olfr112, the z-score is inactive: 0.965. Regarding CGAUACACUGGUGCCCUAUTT against Tmem201, the z-score is inactive: -0.158. For GCAUCGUCUAUCAGCUGAUTT against Rraga, the z-score is inactive: -1.11. On to GCAUCAACAAUCAAAGUUGTT against Sema3c, for which the z-score was inactive: 0.548.

On to GGAGAUUCUCUCUGAUCAATT against Spice1, for which the z-score is inactive: 0.0364.

On to GGGUUUGGGCUUCAACAUCTT against Lin7b, for which the z-score was inactive: -0.41.

Consider GGAUAACAGAGAUUUCUCCTT against Il15ra, for which the z-score is inactive: 0.0534. With GGAAUAAUUUCACUGACUUTT against Hint3, the z-score was inactive: 0.292. For GCCAUUAUGACAGAACGCATT against Adra1d, the z-score was inactive: -0.606. Consider GCAUCACACAGAAUAUGUUTT against F10, for which the z-score was inactive: 0.433.

Regarding GGUACCUGUGCUAUGGAGUTT against Faap24, the z-score is inactive: 0.331. For GGCAUGAGACAAGCUAGUCTT against Mrgpre, the z-score was inactive: -0.463. As for GGUAUAGAAUGUUUGAUCATT against Krcc1, the z-score was inactive: 0.324. Take GGCAGAUUCAGACCUUCGATT against Sult1c2: the z-score was inactive: -0.753. For CCCAAACAGACUAGAUCCGTT against Rab20, the z-score is active: 3.37. Take GUCUGAACUUCUUAGCAUCTT against Uchl4: the z-score was inactive: 0.788.

Consider GCGCAGUUUCAAGGAACUGTT against Kcnf1, for which the z-score is inactive: -0.684. Turning to “CCUGACACUUAUUCUCGGGTT against 5330416C01Rik”, the z-score is inactive: -0.674. GCUCUCUGACCUUGAUUGGTT against Lmbrd1: the z-score is inactive: -0.173. The value for GGUUAUCUUCUUGACAGAATT against Nmur2 was inactive: 1.42; that for GCACUCAUUUUUGCCCUGGTT against Qrfpr was inactive: 0.478. Regarding GGUGACUUGGGCAUUUUUUTT against Vstm4, the z-score was inactive: 0.281. Take GGUAGAGGAUUUACUGAGCTT against Creb3: the z-score is inactive: 0.629.

With GGAGCUGGAUGGUGUUGGUTT against Prom2, the z-score is inactive: 1.5. On to “CCCUGCUUCGUGUGCUAUUTT against C130074G19Rik”, for which the z-score is inactive: 0.499.

With CGAAUGGCUAUCAGUGAGGTT against Tbc1d20, the z-score is inactive: -1.04.

Take CGGUUCUUUUACCAAGAUCTT against Jak3: the z-score was inactive: -0.781. GGGAUUCCAGACAUGGGAATT against Alg9: the z-score is inactive: -0.191. As to CCAGAUACCCAUAAUAUCUTT against Mbnl1, the z-score is inactive: -0.604. GCCUUAUCAGGGUUAAUGGTT against Ipo4: the z-score is inactive: -0.316.

Take GGACUCAAGAAACUUGAAATT against Fam135b: the z-score was inactive: 0.147. The value for GGAGUUUGUUAAUUUCGCATT against Rundc3a was inactive: 0.612; that for GGUCUUCCUGGUUCAGCUUTT against Pold4 was inactive: -0.3.

For the sequence GGAGCAGAAGAAUGAAGGCTT against Ergic3, the z-score is inactive: 0.468. Take GCCUGUAUGAGCUCACUGUTT against Fbxo2: the z-score was inactive: -0.199.

Consider GCAAGUUAUCCAGCACUCATT against Ylpm1, for which the z-score is inactive: -1. Take GGUACACACUGUGUGGCUUTT against Paqr4: the z-score is inactive: -0.0644.

CGAAGAGAUCUCACUAUAATT against Trnt1: the z-score was inactive: 1.21. On to GCAGUAUGUAAACCCUUACTT against Olfr1463, for which the z-score is inactive: 0.558.

As to CGGAAAAUCCUGCCUCCCUTT against S100pbp, the z-score was inactive: -0.36. The value for GCUAUGGCCUUCGGUACAUTT against Selenov was inactive: 1.53; that for GCACAAUGUACAUUAAAGUTT against Aar2 was inactive: 0.344. The value for CCAUCUUCCUCUUUCCUAUTT against Gper1 was inactive: -1.09; that for GCUUUUUGCAUUGACUGGATT against Usp14 was inactive: -0.0587. The value for GGAGGAAAUCCAAGAACUUTT against Fgfr1op2 was inactive: 0.0184; that for GGAGCAGAUUCGGAAGAAATT against Nr1h2 was inactive: 0.872. Turning to GGCAGGUAUGGAUGUAUUGTT against Renbp, the z-score is inactive: -1.72. Consider GGACUUUUACAUUGAGUCCTT against Shprh, for which the z-score is inactive: -1.39. For GCAUUUAAUGCCAAACCUGTT against Kirrel, the z-score is inactive: -0.0708. As for GCAUGUAUAGCCACUUUUGTT against Ifna6, the z-score was inactive: -0.788. As to GGUGGUGUGUUUAAUCCCATT against Gm20735, the z-score was inactive: -0.00906. In the case of CCAACAGGGAGUGUUGAUUTT against Oas1b, the z-score was inactive: -0.476.

With CCAACUGCACUGUCAAACUTT against Tbcc, the z-score was inactive: -0.224. In the case of UCACUUGAGUUGACCAACATT against Olfr1347, the z-score was inactive: -1.33. Regarding GAACUGUACCAAACCCUACTT against Klk1b24, the z-score is inactive: 0.442.

Take GCCGGAAGAAACUCAUGCUTT against Mad2l1bp: the z-score was inactive: -0.152. As to GGAUAUAGAGCUAAGUAAGTT against Dgka, the z-score is inactive: -0.319.

On to GGUCAGGCUGAGGAAUUCATT against Cyp2s1, for which the z-score was inactive: -0.562. Regarding CCACCUAUCUCUAACUACCTT against Mrpl40, the z-score is inactive: 1.35.
